Data taken from patent publication US10513547B2, “Peptides and combination of peptides and scaffolds thereof for use in immunotherapy against colorectal carcinoma (CRC) and other cancers” (Immatics Biotechnologies GmbH, priority 2015, dated 2019).

Test system: HLA molecules from shock-frozen tissue samples (CRC, other tumors, normal tissues)
Assay: Identification and label-free relative LC-MS quantitation of HLA-presented tumor associated peptides (presentation profiles, XPRESIDENT)
Design: species or system human; key to Peptide Presentation (presentation score): very highly over-presented on tumors compared to a panel of normal tissues (+++); highly over-presented on tumors compared to a panel of normal tissues (++); over-presented on tumors compared to a panel of normal tissues (+)
Conditions: for Other relevant organs/diseases: additional tumor types: over-presented on more than 5% of measured tumor samples, or presented on more than 5% with ratio of geometric means tumor vs normal larger than 3; for Additional Entities (additional tumor types on which the peptide was found): over-presentation on more than 5% of the measured tumor samples, or presentation on more than 5% of the measured tumor samples with ratio of geometric means tumor vs normal tissues larger than 3; for Peptide Presentation (presentation score): over-presentation on tumors compared to a panel of normal tissues; for number of cancer tissues with detectable presentation of the peptide: all samples with detectable presentation, all tumor types; for number of normal tissues with detectable presentation of the peptide: normal tissue panel as in FIG. 1A-C

| Substance | Other relevant organs/diseases | Additional Entities (additional tumor types on which the peptide was found) | Peptide Presentation (presentation score) | further results |
| --- | --- | --- | --- | --- |
| SEQ ID NO.: 210 (KLAVALLAA; listed as Homo sapiens) |  |  |  | additionally detected on brain cancers (positive/measured samples) (brain cancers): 2/28; additionally detected on esophageal cancers (positive/measured samples) (esophageal cancers): 3/15; additionally detected on kidney cancers (positive/measured samples) (kidney cancers): 1/18; additionally detected on liver cancers (positive/measured samples) (liver cancers): 2/16; additionally detected on lung cancers (positive/measured samples) (lung cancers): 14/99; additionally detected on ovarian cancers (positive/measured samples) (ovarian cancers): 1/20; additionally detected on stomach cancers (positive/measured samples) (stomach cancers): 1/45 |
| 127 (RLAELTVDEFLA; listed as Homo sapiens) [compound 127] | Ovary | SCLC, Melanoma, Urinary bladder cancer, Uterine Cancer, AML | +++ |  |
| 163 (RLLHEVQEL; listed as Homo sapiens) [compound 163] | Brain | RCC, AML, NHL | ++ |  |
| 198 (VLYGPDVPTI; listed as Homo sapiens) [compound 198] | Pancreas |  | ++ |  |
| 154 (KLPSETIFVGC; listed as Homo sapiens) [compound 154] | Lung, Liver, Leukocytes, Ovary, Esophagus | Melanoma, Uterine Cancer, AML | + |  |
| 231 (RLFADILNDV; listed as Homo sapiens) [compound 231] | Lung, Brain, Liver, Prostate, MCC, Ovary |  | +++ |  |
| 224 (QLQEGKNVIGL; listed as Homo sapiens) [compound 224] | Pancreas |  | +++ |  |
| SEQ ID NO.: 23 (FLDANGHFV; listed as Homo sapiens) |  |  |  | number of cancer tissues with detectable presentation of the peptide: 12; number of normal tissues with detectable presentation of the peptide: 3 |
| SEQ ID NO.: 31 (LLYGKYVSV; listed as Homo sapiens) |  |  |  | number of cancer tissues with detectable presentation of the peptide: 28; number of normal tissues with detectable presentation of the peptide: 0 |
| 93 (SLQELRLLL; listed as Homo sapiens) [compound 93] |  | SCLC | + |  |
| 252: peptide found in FAP (gene looked up) (YVYQNNIYL; listed as Homo sapiens) [compound 252] | Lung, Stomach, Liver, Pancreas, Breast, Melanoma, Ovary, Esophagus |  | + |  |
| 149 (YQFDKVGILTL; listed as Homo sapiens) [compound 149] | Leukocytes, Melanoma | SCLC, RCC, Brain Cancer |  |  |
| 208 (RLIDRIKTV; listed as Homo sapiens) [compound 208] | Lung, Brain, Liver, Ovary |  | +++ |  |
| 105 (YALDLSTFL; listed as Homo sapiens) [compound 105] | Kidney, Liver | BRCA, Melanoma, Urinary bladder cancer, PC |  |  |
| 145 (LLLEVVKQV; listed as Homo sapiens) [compound 145] |  | Gallbladder Cancer, Bile Duct Cancer, NHL | +++ |  |
| 72 (YLLDYPNNLL; listed as Homo sapiens) [compound 72] | Lung, Kidney, Brain, Liver, Leukocytes, Breast, Ovary, Esophagus |  | ++ |  |
| 141 (AVIEHLERL; listed as Homo sapiens) [compound 141] | Lung, Kidney, Esophagus |  | +++ |  |
| 150 (RLADLEALKV; listed as Homo sapiens) [compound 150] |  | Urinary bladder cancer, NHL | +++ |  |
